Source: the supplement of paper PMC8728848
The list shows a part of the results.

Columns and labels:
Assay in all cases: glycan array binding signal (z-score within array); higher = stronger binding
Conditions in all cases: glycan notation: IUPAC condensed, linker removed
[1] = target: GlcNAc(a1-6)Gal(b1-4)GlcNAc
Summary of the method: (§1)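 Glycan array binding is given as a within-array Z-score, which can be read as non-binding when negative. The arrays, 3228 of them, came from the Consortium for Functional Glycomics database and were retained only where the protein sequence was available. Z-scores were averaged across arrays of the same protein sequence at different concentrations or buffers and across linkers.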

[2] = target: GlcNAc(b1-2)Gal(b1-3)GalNAc
Summary of the method: as §1

[3] = target: GlcNAc(b1-2)Man(a1-3)[GlcNAc(b1-2)Man(a1-6)]Man(b1-4)GlcNAc(b1-4)GlcNAc
Summary of the method: as §1

[4] = target: GlcNAc(b1-2)Man(a1-3)[GlcNAc(b1-2)Man(a1-6)]Man(b1-4)GlcNAc(b1-4)[Fuc(a1-6)]GlcNAc
Summary of the method: as §1

[5] = target: GlcNAc(b1-2)Man(a1-3)[GlcNAc(b1-4)][GlcNAc(b1-2)Man(a1-6)]Man(b1-4)GlcNAc(b1-4)GlcNAc
Summary of the method: as §1

[6] = target: GlcNAc(b1-2)Man(a1-3)[GlcNAc(b1-4)][GlcNAc(b1-2)Man(a1-6)]Man(b1-4)GlcNAc(b1-4)[Fuc(a1-6)]GlcNAc
Summary of the method: as §1

[7] = target: GlcNAc(b1-2)[GlcNAc(b1-4)]Man(a1-3)[GlcNAc(b1-2)Man(a1-6)]Man(b1-4)GlcNAc(b1-4)GlcNAc
Summary of the method: as §1

[8] = target: GlcNAc(b1-2)[GlcNAc(b1-4)]Man(a1-3)[GlcNAc(b1-4)][GlcNAc(b1-2)Man(a1-6)]Man(b1-4)GlcNAc(b1-4)GlcNAc
Summary of the method: as §1

[9] = target: GlcNAc(b1-2)[GlcNAc(b1-4)]Man(a1-3)[GlcNAc(b1-4)][GlcNAc(b1-2)[GlcNAc(b1-6)]Man(a1-6)]Man(b1-4)GlcNAc(b1-4)GlcNAc
Summary of the method: as §1

[10] = target: GlcNAc(b1-2)[GlcNAc(b1-4)]Man(a1-3)[GlcNAc(b1-4)][GlcNAc(b1-2)[GlcNAc(b1-6)]Man(a1-6)]Man(b1-4)GlcNAc(b1-4)[Fuc(a1-6)]GlcNAc
Summary of the method: as §1

[11] = target: GlcNAc(b1-2)[GlcNAc(b1-6)]Man(a1-6)[GlcNAc(b1-2)Man(a1-3)]Man(b1-4)GlcNAc(b1-4)GlcNAc
Summary of the method: as §1

[12] = target: GlcNAc(b1-2)[GlcNAc(b1-6)]Man(a1-6)[GlcNAc(b1-2)Man(a1-3)]Man(b1-4)GlcNAc(b1-4)[Fuc(a1-6)]GlcNAc
Summary of the method: as §1

[13] = target: GlcNAc(b1-2)[GlcNAc(b1-6)]Man(a1-6)[GlcNAc(b1-4)][GlcNAc(b1-2)Man(a1-3)]Man(b1-4)GlcNAc(b1-4)GlcNAc
Summary of the method: as §1

GlcNAc(b1-3)Fuc = target: GlcNAc(b1-3)Fuc
Summary of the method: as §1

GlcNAc(b1-3)Gal = target: GlcNAc(b1-3)Gal
Summary of the method: as §1

[14] = target: GlcNAc(b1-3)Gal(b1-3)GalNAc
Summary of the method: as §1

GlcNAc(b1-3)Gal(b1-4)Glc = target: GlcNAc(b1-3)Gal(b1-4)Glc
Summary of the method: as §1

[15] = target: GlcNAc(b1-3)Gal(b1-4)GlcNAc
Summary of the method: as §1

B1: RsaA-N-term (Caulobacter crescentus), P35828 (protein)
chain: MAYTTAQLVTAYTNANLGKAPDAATTLTLDAYATQTQTGGLSDAAALTNTLKLVNSTTAVAIQTYQFFTGVAPSAAGLDFLVDSTTNTNDLNDAYYSKFAQENRFINFSINLATGAGAGATAFAAAYTGVSYAQTVATAYDKIIGNAVATAAGVDVAAAVAFLSRQANIDYLTAFVRANTPFTAAADIDLAVKAALIGTILNAATVSGIGGYATATAAMINDLSDGALSTDNAAGVNLFTAYPSSGVSGSTLSLTTGTDTLTGTANNDTFVAGEVAGDGSGWSHPQFEKGG
[1]
  glycan array binding signal (z-score): 0.087
[2]
  glycan array binding signal (z-score): -1.33
[3]
  glycan array binding signal (z-score): -0.715
[4]
  glycan array binding signal (z-score): 0.396
[5]
  glycan array binding signal (z-score): -0.518
[6]
  glycan array binding signal (z-score): -1.03
[7]
  glycan array binding signal (z-score): -0.266
[8]
  glycan array binding signal (z-score): 1.97
[9]
  glycan array binding signal (z-score): -1.75
[10]
  glycan array binding signal (z-score): 0.317
[11]
  glycan array binding signal (z-score): -0.552
[12]
  glycan array binding signal (z-score): 0.799
[13]
  glycan array binding signal (z-score): -0.652
GlcNAc(b1-3)Fuc
  glycan array binding signal (z-score): -0.041
GlcNAc(b1-3)Gal
  glycan array binding signal (z-score): -0.705
[14]
  glycan array binding signal (z-score): 0.337
GlcNAc(b1-3)Gal(b1-4)Glc
  glycan array binding signal (z-score): -0.647
[15]
  glycan array binding signal (z-score): -0.005
